# Patent publication US20200048693
# By UniProt entry, the sequences of proteins in these tests, tags left out. Residues count along the entry.
# UniProt P00639, 23-282: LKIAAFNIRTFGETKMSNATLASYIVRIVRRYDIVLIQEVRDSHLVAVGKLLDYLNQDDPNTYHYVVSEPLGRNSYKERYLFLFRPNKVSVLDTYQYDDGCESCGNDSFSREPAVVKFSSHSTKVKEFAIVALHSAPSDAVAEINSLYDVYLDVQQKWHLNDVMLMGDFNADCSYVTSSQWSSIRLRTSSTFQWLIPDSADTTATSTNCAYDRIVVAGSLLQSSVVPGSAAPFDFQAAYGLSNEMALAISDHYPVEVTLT
# For some assays here: A negative result means that nothing was seen under these conditions. For some assays here: Protein sequences can lack the tags named with them. For some assays here: A weaker result is weaker than the reference pair of the same experiment. For some assays here: Construct, isoform or probe ends are uncertain for at least one entry. For some assays here: The direction of at least one scale is not stated here.
# Legend:
# [1] = target: DNase I (UniProt P00639); assay: enzyme reaction in vitro; settings: First-Strand buffer, 37 C, purified native protein, protein details: Amplification Grade, Life Technologies
# [2] = target: T1, T4 gene 32 protein (Enterobacteria phage T4) (UniProt P03695); assay: inhibition of the protein; settings: purified recombinant protein, protein details: Roche Applied Science
# T1 sequence (looked up, limits assumed): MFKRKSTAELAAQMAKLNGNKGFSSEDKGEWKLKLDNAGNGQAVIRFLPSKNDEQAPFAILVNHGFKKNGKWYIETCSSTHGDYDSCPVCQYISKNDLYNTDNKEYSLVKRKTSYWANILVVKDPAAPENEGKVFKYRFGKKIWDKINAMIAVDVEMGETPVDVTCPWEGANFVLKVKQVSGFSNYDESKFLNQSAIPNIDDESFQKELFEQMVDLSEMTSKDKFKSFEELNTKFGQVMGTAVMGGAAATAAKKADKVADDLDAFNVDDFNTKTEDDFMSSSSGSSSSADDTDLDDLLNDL
# [3] = test system: dsDNase (shrimp double strand-specific DNase); assay: activity assay; settings: FRET nuclease assay, 1x First-Strand buffer, 37 C; cleaved; purified recombinant protein; protein details: ArcticZymes; label: 5'-FAM and 5'-HEX, 3'-BHQ1
# [4] = test system: dsDNase (shrimp double strand-specific DNase); assay: enzyme reaction in vitro; settings: almost no activity, First-Strand buffer, 37 C, purified recombinant protein, protein details: ArcticZymes, label: HEX, BHQ1
# [5] = label: 5'-FAM and 5'-HEX, 3'-BHQ1
sequence,measurement,setting,value
CGCCATCGGAGGTTC (double strand) [double-stranded DNA dual probe],activity on this sequence,[1]; [5],active
same,binding result,[2]; [5],no binding
same,activity on this sequence,[3],active
CGCCATCGGAGGTTC / GAACCUCCGAUGGCG [RNA-DNA hybrid dual probe],activity on this sequence,"[1]; selective cleavage of DNA strand in hybrid, label: FAM on DNA, HEX on RNA, BHQ1, DNA:RNA …",active
same,binding signal (% residual DNase I activity),"[2]; DNA in hybrid, PrimeScript buffer, 37 C, indirect, label: FAM on DNA, HEX on RNA, BHQ1, DNA:RNA hybrid",60
GAACCTCCGATGGCG [single-stranded DNA HEX probe],activity on this sequence,[4]; single-stranded DNA,not active
same,activity on this sequence,"[1]; low activity on ssDNA, label: HEX, BHQ1, single-stranded DNA",less active
GAACCUCCGAUGGCG [single-stranded RNA HEX probe],activity on this sequence,[4],not active
